The text below walks through data of patent US20180280510A1 (CARNEGIE MELLON UNIVERSITY, published 2018).

This assay deals with T1, epidermal growth factor receptor (EGFR) on A431 cells (human, UniProt P00533 25-1210).
T1 construct: whole, on cells; Endogenous receptor on A431 tumor cells; also called HER1; EGFR1
In words: equilibrium binding fluorescence on A431 cells (cell surface Kd).

B1: ZEGFR:1907-FAPdL5**-ZEGFR:1907 (designed binder)
chain: GPSKLAEAKYAKEMWAAWEEIRNLPNLTGWQMTAFIAKLVDDPSQSSELLSEAKKLNDSQAPKGSQAVVTQEPSVTVSPGGTVILTCGSGTGAVTSGHYANWFQQKPGQAPRALIFDTDKKYSWTPGRFSGSLLGAKAALTISDAQPEDEAEYYCSLSDVDGYLFGGGTQLTVLSGGGGSGGGGSGGGGSGGGGSQAVVTQEPSVTVSPGGTVILTCGSGTGAVTSGHYANWFQQKPGQAPRALIFDTDKKYSWTPGRFSGSLLGAKAALTISDAQPEDEAEYYCSLSDVDGYLFGGGTQLTVLSGTAEAKYAKEMWAAWEEIRNLPNLTGWQMTAFIAKLVDDPSQSSELLSEAKKLNDSQAPKLE
notes: Single FAP flanked by two ZEGFR:1907 affibodies; also called AFA; ZEGFR:1907 fusion probe AFA
B1 registered a Kd of 37 nM.

B2: ZEGFR:1907-FAPdL5** (designed binder)
chain: GPSKLAEAKYAKEMWAAWEEIRNLPNLTGWQMTAFIAKLVDDPSQSSELLSEAKKLNDSQAPKASGSTSGTQAVVTQEPSVTVSPGGTVILTCGSGTGAVTSGHYANWFQQKPGQAPRALIFDTDKKYSWTPGRFSGSLLGAKAALTISDAQPEDEAEYYCSLSDVDGYLFGGGTQLTVLSGGGGSGGGGSGGGGSGGGGSQAVVTQEPSVTVSPGGTVILTCGSGTGAVTSGHYANWFQQKPGQAPRALIFDTDKKYSWTPGRFSGSLLGAKAALTISDAQPEDEAEYYCSLSDVDGYLFGGGTQLTVLSLE
notes: also called AF; ZEGFR:1907 fusion probe AF
On to B2, for which binding was put at a Kd of 122 nM.

One may read the Kd as the constant that tells how readily two partners part at equilibrium.
